The experiment deals with human eIF4GII residues 551–745 (human) (UniProt O43432). The experiment in a line: SEC-MALS; Superdex 200 10/300 in assay buffer, miniDAWN light scattering instrument, 100 µg sample; both purified. A general note: Size exclusion chromatography separates by hydrodynamic size, large species first.

These are yes or no findings as the source states them, for the method shown.

B1: human eIF4GII residues 551–745 (domain or fragment, UniProt O43432 551-745, looked up)
chain: GFHPERDPSDLKKVKAVEENGEEAEPVRNGAESVSEGEGIDANSGSTDSSGDGVTFPFKPESWKPTDTEGKKQYDREFLLDFQFMPACIQKPEGLPPISDVVLDKINQPKLPMRTLDPRILPRGPDFTPAFADFGRQTPGGRGVPLLNVGSRRSQPGQRREPRKIITVSVKEDVHLKKAENAWKPSQKRDSQADD
As to B1, the binding result is listed as “no binding”.
